Values from PubChem BioAssay AID1259308 (NCATS, 2017).
Aim: 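Knock-downs that increase output of a recombinant reporter protein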 (primary screen). System: human HEK293 embryonic kidney cells stably expressing firefly luciferase (HEK-CMV-Luc2-Hygro). Reagent: single siRNA against human genes, 0.8 pmol siRNA per well. Timing: 72 h. Measured: 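Reporter luminescence and viable-cell signal on separate replicate plates, given as percent of non-targeting control and median/MAD z-scores, plus per-cell luciferase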. Reading the numbers: total luciferase, z-score and total luciferase, % of control: higher = more reporter protein produced; luciferase per cell, z-score: higher = more reporter output per viable cell; viable cells, % of control: higher = more viable cells. Hit rule: 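An siRNA counts as active if its total luciferase robust z-score exceeds 3; genes with two or more such siRNAs out of three were retested with fresh siRNAs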. Calls: active = raised luciferase; inactive = no rise.
In all, the deposit lists about 59,000 reagents; this is an unselected part. Of all reagents, about 1,510 (2.6%) were called active. 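Calls use total luciferase alone and ignore viability, so some active siRNAs may act by altering cell number.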 A number with no mark means an inactive call. Reagents against one gene are numbered here.

"total luciferase, z-score","total luciferase, % of control","luciferase per cell, z-score","viable cells, % of control",gene,reagent
-0.856,64.9,-0.744,88.2,ANKRD53,1
-0.506,71.8,-0.202,84.7,ANKRD53,2
0.887,99.5,0.627,94.3,ANKRD53,3
1.49,112,1.03,95,ZSCAN29,1
-1.58,50.4,-1.4,81.5,ZSCAN29,2
-1.29,56.3,-1.34,89.5,ZSCAN29,3
0.954,101,0.702,93.7,CNTN6,1
0.385,89.5,0.598,85.5,CNTN6,2
-0.222,77.5,-0.218,91.7,CNTN6,3
1.06,103,0.834,92.4,SNAPIN,1
-0.995,62.1,-1.5,103,SNAPIN,2
-1.04,61.2,-1.12,91.8,SNAPIN,3
0.19,85.7,1.59,63,EPHB2,1
0.0628,83.1,0.0596,91.5,EPHB2,2
-2.73,27.6,-1.67,48,EPHB2,3
-0.441,73.1,1.51,54.9,MED22,1
-0.502,71.9,0.161,77,MED22,2
0.916,100,0.629,94.8,MED22,3
-0.462,72.7,-0.33,88.6,ANO6,1
-0.464,72.7,-0.331,88.6,ANO6,2
0.25,86.9,1.21,70.6,ANO6,3
-0.0589,80.7,-0.00749,90.4,SOFU1,1
-0.621,69.5,-0.174,81.3,SOFU1,2
2.24,126,2.24,78.3,SOFU1,3
1.02,102,-0.0324,115,UCHL3,1
0.62,94.2,-0.11,108,UCHL3,2
-0.327,75.4,-0.18,88.3,UCHL3,3

The list goes on (8 carried over from the part before).
"total luciferase, z-score","total luciferase, % of control","luciferase per cell, z-score","viable cells, % of control",gene,reagent
-0.464,72.7,-0.331,88.6,ANO6,2
0.25,86.9,1.21,70.6,ANO6,3
-0.0589,80.7,-0.00749,90.4,SOFU1,1
-0.621,69.5,-0.174,81.3,SOFU1,2
2.24,126,2.24,78.3,SOFU1,3
1.02,102,-0.0324,115,UCHL3,1
0.62,94.2,-0.11,108,UCHL3,2
-0.327,75.4,-0.18,88.3,UCHL3,3
1.59,114,1.54,84.6,TLX2,1
-0.421,73.5,-0.936,105,TLX2,2
0.422,90.3,0.475,89,TLX2,3
-0.244,77,-0.0804,87.9,ABCA4,1
2.2,126,2.87,66,ABCA4,2
1.25,107,0.743,98,ABCA4,3
-1.33,55.4,-1.05,81.7,ANKHD1-EIF4EBP3,1
1.69,115,1.66,83.3,ANKHD1-EIF4EBP3,2
0.297,87.8,-0.229,104,ANKHD1-EIF4EBP3,3
-1.02,61.6,-1.7,108,ANKIB1,1
-0.682,68.3,-0.854,95.6,ANKIB1,2
0.284,87.5,1.66,63.2,ANKIB1,3
-0.162,78.7,-0.382,97.2,ACTR8,1
0.102,83.9,-0.124,96.9,ACTR8,2
-1.23,57.4,-2.07,111,ACTR8,3
-0.39,74.1,-0.896,105,IGBP1,1
-0.321,75.5,-0.34,92.3,IGBP1,2
-0.754,66.9,-1.06,98.9,IGBP1,3
1.95,121,1.94,80.9,APC,1
-0.107,79.8,0.238,83.7,APC,2
-0.341,75.1,-0.674,100,APC,3
0.663,95.1,-0.522,122,TRMT61A,1
0.877,99.3,1.27,79.4,TRMT61A,2
-0.346,75,-0.604,98.2,TRMT61A,3
0.897,99.7,0.568,96,CYP11A1,1
-1.1,60,0.0403,66.4,CYP11A1,2
3.52 (active),152,2.99,77.2,CYP11A1,3
-1.52,51.6,-1.57,87.3,WFDC12,1
-0.836,65.3,-0.563,84.6,WFDC12,2
-0.493,72.1,-1.06,107,WFDC12,3
